Columns and labels:
[1] = general procedure: Fmoc solid-phase peptide synthesis; Rink linker-polystyrene; HOBt ester; HOAt with DIPEA for Fmoc-Glu(2-phenylisopropyloxy)-OH; conditions: whole synthesis, scale 0.10 mmol, hydrochloride
[2] = general procedure: Fmoc solid-phase peptide synthesis; Fmoc-Rink resin (4-(2',4'-dimethoxyphenyl-Fmoc-aminomethyl)-phenoxypolystyrene resin, Bachem D-2080; 0.47 mmol/g); HOBt ester; HOAt with DIPEA for Fmoc-Glu(2-phenylisopropyloxy)-OH; conditions: whole synthesis, scale of the general procedure 0.10 mmol, hydrochloride

2-[2-(hexadecanoylamino)ethoxy]ethoxyacetyl-His-Ser-Nle-c[Glu-Asn-D-Phe-Arg-Trp-Lys]-NH2
isolated mass [1]: 21.6 mg
isolated yield [1]: 13% yield
final HPLC purity ([2]; UV 214 nm): 99% purity
final HPLC purity ([2]; UV 254 nm): 94% purity
